The values that follow come from PMC12293422.

Sequences of proteins named here, by UniProt entry; tags and fusion partners are left off. A change or cut given only in a name is not applied to a line headed by its entry. A line that says so, or that is headed by a name, gives the form on record, which may keep a tag or linker.
UniProt Q9NQS7: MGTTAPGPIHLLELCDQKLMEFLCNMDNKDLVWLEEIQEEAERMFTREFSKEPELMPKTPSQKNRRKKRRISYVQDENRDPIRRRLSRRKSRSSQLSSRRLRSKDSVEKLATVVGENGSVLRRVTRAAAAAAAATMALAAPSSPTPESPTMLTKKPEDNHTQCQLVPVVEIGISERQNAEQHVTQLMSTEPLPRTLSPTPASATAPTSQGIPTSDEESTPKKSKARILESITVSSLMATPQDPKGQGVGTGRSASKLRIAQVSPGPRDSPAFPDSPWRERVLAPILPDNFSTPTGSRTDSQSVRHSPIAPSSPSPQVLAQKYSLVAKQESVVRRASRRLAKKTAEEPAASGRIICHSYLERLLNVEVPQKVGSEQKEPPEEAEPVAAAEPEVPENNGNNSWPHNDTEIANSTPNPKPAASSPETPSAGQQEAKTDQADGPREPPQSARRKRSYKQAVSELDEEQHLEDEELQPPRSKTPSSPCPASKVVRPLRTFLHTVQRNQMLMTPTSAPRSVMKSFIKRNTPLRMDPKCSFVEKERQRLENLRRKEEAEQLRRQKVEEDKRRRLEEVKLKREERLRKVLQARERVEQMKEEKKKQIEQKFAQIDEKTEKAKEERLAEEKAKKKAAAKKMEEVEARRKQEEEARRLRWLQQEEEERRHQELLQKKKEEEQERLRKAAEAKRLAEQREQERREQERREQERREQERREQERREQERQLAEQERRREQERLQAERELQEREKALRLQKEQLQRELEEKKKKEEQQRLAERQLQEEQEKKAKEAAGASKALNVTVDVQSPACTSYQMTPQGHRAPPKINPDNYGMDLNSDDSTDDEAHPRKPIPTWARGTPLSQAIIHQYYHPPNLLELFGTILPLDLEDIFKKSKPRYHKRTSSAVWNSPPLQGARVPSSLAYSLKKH
Flag-tagged INCENP (inner centromere protein) (Q9NQS7, form named): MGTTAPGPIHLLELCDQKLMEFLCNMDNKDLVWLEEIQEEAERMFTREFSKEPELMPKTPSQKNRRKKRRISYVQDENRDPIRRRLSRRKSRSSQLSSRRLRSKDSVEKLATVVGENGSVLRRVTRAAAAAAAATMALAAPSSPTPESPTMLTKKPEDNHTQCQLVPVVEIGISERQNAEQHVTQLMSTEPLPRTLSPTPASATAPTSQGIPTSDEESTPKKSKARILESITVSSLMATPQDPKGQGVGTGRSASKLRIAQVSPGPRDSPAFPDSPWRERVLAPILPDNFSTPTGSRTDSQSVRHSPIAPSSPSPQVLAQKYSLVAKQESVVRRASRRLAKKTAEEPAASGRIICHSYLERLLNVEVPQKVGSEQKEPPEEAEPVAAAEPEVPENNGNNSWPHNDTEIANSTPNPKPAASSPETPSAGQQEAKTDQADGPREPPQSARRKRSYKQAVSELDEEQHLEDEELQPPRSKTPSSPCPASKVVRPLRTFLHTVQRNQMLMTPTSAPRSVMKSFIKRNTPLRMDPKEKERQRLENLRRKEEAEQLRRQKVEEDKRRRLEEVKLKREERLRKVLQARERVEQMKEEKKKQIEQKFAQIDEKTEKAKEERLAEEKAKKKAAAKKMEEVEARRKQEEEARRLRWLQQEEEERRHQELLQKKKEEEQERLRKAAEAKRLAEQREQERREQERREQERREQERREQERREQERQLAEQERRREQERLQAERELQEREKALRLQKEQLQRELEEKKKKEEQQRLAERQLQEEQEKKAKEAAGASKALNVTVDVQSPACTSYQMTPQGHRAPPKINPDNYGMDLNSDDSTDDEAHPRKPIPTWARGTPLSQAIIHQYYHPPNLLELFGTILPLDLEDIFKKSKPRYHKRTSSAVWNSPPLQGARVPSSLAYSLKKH
UniProt O15392: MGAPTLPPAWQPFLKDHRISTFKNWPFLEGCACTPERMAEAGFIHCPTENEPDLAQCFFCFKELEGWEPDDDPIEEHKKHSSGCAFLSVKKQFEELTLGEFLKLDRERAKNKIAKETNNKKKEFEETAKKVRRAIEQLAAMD

Read-outs that look alike come from different tables or passages of the source. Results are given in words; binding and its absence hold for the method and conditions named. Binding seen in cells or lysates may run through a third protein. Some binding calls cover weakened binding; strength is not graded here. For some assays here: Sequences can lack the tags named with a protein.

The target in assay [1] is Flag-tagged INCENP (inner centromere protein) (UniProt Q9NQS7). The experiment in a line: co-IP; HEK293T cells co-transfected with two tagged proteins (Flag, Myc or HA), lysed 48 h later in RIPA buffer (1% NP-40, 150 mM NaCl, 50 mM Tris-HCl, 10% glycerol, 1 mM DTT); IP with anti-Flag (M2) or anti-Myc agarose overnight at 4 °C, Western blot; Figure 3A,B with HA-ubiquitin and MG132; Figure 3H in MSL1-KO against control cells. For orientation: A western blot detects proteins with antibodies after separation by electrophoresis.

Assay [2] shares this target. The experiment in a line: co-IP; Flag IP (anti-Flag M2 agarose, overnight at 4 °C) from whole-cell lysates of HEK293T cells transfected with the Flag-tagged bait; endogenous partners detected by Western blot; RIPA buffer with 1% NP-40, 150 mM NaCl, 50 mM Tris-HCl, 10% glycerol, 1 mM DTT; in Figure 2M with or without shMSL1.
In the next assay the target is T1, Flag-tagged MSL1 (UniProt Q68DK7).
T1 sequence: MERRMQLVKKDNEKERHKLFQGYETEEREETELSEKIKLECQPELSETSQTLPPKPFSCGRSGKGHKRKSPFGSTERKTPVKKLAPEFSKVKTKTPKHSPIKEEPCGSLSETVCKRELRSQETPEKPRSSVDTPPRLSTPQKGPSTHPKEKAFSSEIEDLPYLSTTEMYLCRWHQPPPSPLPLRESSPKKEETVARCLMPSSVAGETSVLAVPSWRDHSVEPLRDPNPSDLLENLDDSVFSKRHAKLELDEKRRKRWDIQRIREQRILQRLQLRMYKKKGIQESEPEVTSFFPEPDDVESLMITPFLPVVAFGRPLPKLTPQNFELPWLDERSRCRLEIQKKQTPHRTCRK
The description is as above.

The target in assay [3] is Flag-tagged AURKB K215Q (acetylation-mimetic mutant) (UniProt Q96GD4). The assay is described as above.
For assay [4], the target named is Flag-tagged AURKB (Aurora kinase B), wild type (UniProt Q96GD4). The description is as above.
In assay [5] the target is Flag-tagged INCENP (inner centromere protein) (UniProt Q9NQS7). The experiment in a line: co-IP; HEK293T cells co-transfected with two tagged proteins (Flag, Myc or HA), lysed 48 h later in RIPA buffer (1% NP-40, 150 mM NaCl, 50 mM Tris-HCl, 10% glycerol, 1 mM DTT); IP with anti-Flag (M2) or anti-Myc agarose overnight at 4 °C, Western blot; Figure 3A,B with HA-ubiquitin and MG132; Figure 3H in MSL1-KO against control cells. The source holds these as a separate data set.

The target in assay [6] is Flag-tagged AURKB (Aurora kinase B), wild type (UniProt Q96GD4). The description is as above.
The target in assay [7] is T2, Flag-tagged AURKB (Aurora kinase B), wild type, Q96GD4.
T2 chain: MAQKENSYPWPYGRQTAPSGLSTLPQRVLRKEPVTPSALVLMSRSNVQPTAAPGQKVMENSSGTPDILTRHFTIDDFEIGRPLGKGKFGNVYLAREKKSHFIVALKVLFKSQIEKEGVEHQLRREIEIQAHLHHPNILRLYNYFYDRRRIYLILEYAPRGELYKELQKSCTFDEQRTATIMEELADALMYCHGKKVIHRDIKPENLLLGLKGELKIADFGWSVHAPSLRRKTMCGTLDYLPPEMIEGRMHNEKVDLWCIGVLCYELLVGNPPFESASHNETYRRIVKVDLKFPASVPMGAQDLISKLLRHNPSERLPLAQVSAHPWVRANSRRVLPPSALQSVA
The experiment in a line: co-IP; Flag IP (anti-Flag M2 agarose, overnight at 4 °C) from whole-cell lysates of HEK293T cells transfected with the Flag-tagged bait; endogenous partners detected by Western blot; RIPA buffer with 1% NP-40, 150 mM NaCl, 50 mM Tris-HCl, 10% glycerol, 1 mM DTT; in Figure 2M with or without shMSL1. As to conditions: remark: other sources report otherwise.

The target of assay [8] is Flag-tagged AURKB K215Q (acetylation-mimetic mutant) (UniProt Q96GD4). The assay is described as above. This is another data set of the same source.

Regarding “Myc-tagged AURKB (from UniProt Q96GD4-1 1-344) (enzyme)”, in assay [1], the binding result is “binds”.

As to “endogenous AURKB (Aurora kinase B) (from UniProt Q96GD4 1-344) (enzyme)”, the binding result (in assay [2]; in the assay with Flag-tagged MSL1) was “binds” throughout. Consider “endogenous BIRC5 (Survivin) (from UniProt O15392 1-142)”, for which the binding entry in [3] and in [4] was “binds” throughout. For “endogenous INCENP (inner centromere protein) (from UniProt Q9NQS7 1-918)”, the binding entry in [3] and in assay [4] was “binds” throughout.

B1: full-length Myc-tagged MOF (1-458 aa) (enzyme, UniProt Q9H7Z6-1 1-458)
chain: MAAQGAAAAVAAGTSGVAGEGEPGPGENAAAEGTAPSPGRVSPPTPARGEPEVTVEIGETYLCRRPDSTWHSAEVIQSRVNDQEGREEFYVHYVGFNRRLDEWVDKNRLALTKTVKDAVQKNSEKYLSELAEQPERKITRNQKRKHDEINHVQKTYAEMDPTTAALEKEHEAITKVKYVDKIHIGNYEIDAWYFSPFPEDYGKQPKLWLCEYCLKYMKYEKSYRFHLGQCQWRQPPGKEIYRKSNISVYEVDGKDHKIYCQNLCLLAKLFLDHKTLYFDVEPFVFYILTEVDRQGAHIVGYFSKEKESPDGNNVACILTLPPYQRRGYGKFLIAFSYELSKLESTVGSPEKPLSDLGKLSYRSYWSWVLLEILRDFRGTLSIKDLSQMTSITQNDIISTLQSLNMVKYWKGQHVICVTPKLVEEHLKSAQYKKPPITVDSVCLKWAPPKHKQVKLSKK
Regarding B1, the binding result in assay [5] and in assay [6] was “binds” throughout.

B2: endogenous CDCA8 (Borealin), Q53HL2 1-280 (protein)
chain: MAPRKGSSRVAKTNSLRRRKLASFLKDFDREVEIRIKQIESDRQNLLKEVDNLYNIEILRLPKALREMNWLDYFALGGNKQALEEAATADLDITEINKLTAEAIQTPLKSAKTRKVIQVDEMIVEEEEEEENERKNLQTARVKRCPPSKKRTQSIQGKGKGKRSSRANTVTPAVGRLEVSMVKPTPGLTPRFDSRVFKTPGLRTPAAGERIYNISGNGSPLADSKEIFLTVPVGGGESLRLLASDLQRHSIAQLDPEALGNIKKLSNRLAQICSSIRTHK
B2: in assay [7], the binding result was “binds”.

B3: endogenous CDCA8 (Borealin) (protein, UniProt Q53HL2 1-280)
chain: MAPRKGSSRVAKTNSLRRRKLASFLKDFDREVEIRIKQIESDRQNLLKEVDNLYNIEILRLPKALREMNWLDYFALGGNKQALEEAATADLDITEINKLTAEAIQTPLKSAKTRKVIQVDEMIVEEEEEEENERKNLQTARVKRCPPSKKRTQSIQGKGKGKRSSRANTVTPAVGRLEVSMVKPTPGLTPRFDSRVFKTPGLRTPAAGERIYNISGNGSPLADSKEIFLTVPVGGGESLRLLASDLQRHSIAQLDPEALGNIKKLSNRLAQICSSIRTHK
Regarding B3, the binding result in [8] is recorded as “binds”.
